From the supplement of paper PMC10849652
Some of the results follow.

The chains behind the UniProt entries cited, without tags or fusion partners. Where a name states a change or a piece, a line headed by the entry shows the natural chain unless it says otherwise.
UniProt Q7KYR7: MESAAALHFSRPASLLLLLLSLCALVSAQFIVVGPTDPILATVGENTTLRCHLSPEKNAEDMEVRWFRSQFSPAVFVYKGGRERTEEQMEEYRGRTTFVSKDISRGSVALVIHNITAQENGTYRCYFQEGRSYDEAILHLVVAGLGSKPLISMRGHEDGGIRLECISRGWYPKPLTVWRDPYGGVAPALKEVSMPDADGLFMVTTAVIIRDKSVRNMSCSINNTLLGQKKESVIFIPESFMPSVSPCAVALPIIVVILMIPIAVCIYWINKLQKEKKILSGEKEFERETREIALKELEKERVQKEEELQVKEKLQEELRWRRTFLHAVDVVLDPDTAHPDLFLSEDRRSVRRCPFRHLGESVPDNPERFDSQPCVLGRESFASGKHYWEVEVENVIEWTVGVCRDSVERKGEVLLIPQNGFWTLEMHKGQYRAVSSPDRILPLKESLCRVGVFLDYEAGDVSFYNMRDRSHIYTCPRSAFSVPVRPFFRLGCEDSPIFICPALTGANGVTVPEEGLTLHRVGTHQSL
UniProt Q9NX04: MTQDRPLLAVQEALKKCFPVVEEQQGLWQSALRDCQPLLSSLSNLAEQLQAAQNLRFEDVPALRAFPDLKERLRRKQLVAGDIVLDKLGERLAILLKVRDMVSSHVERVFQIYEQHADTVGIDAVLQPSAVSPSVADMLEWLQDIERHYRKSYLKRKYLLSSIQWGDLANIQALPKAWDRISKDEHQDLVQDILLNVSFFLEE
UniProt P47756, whole entry, looked up: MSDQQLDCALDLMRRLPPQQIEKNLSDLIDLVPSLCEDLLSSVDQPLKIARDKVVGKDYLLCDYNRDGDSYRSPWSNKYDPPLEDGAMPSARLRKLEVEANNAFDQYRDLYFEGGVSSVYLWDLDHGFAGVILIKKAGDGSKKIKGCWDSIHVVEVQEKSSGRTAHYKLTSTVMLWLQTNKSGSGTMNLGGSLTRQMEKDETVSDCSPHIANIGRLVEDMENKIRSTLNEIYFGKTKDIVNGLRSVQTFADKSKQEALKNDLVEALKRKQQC
UniProt Q8IXQ3: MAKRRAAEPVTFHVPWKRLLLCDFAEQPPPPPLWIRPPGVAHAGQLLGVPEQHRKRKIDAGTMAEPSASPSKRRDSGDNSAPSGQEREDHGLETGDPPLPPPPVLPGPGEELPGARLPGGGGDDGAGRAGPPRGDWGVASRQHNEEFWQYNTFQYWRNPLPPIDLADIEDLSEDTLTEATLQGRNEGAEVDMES
UniProt O43852: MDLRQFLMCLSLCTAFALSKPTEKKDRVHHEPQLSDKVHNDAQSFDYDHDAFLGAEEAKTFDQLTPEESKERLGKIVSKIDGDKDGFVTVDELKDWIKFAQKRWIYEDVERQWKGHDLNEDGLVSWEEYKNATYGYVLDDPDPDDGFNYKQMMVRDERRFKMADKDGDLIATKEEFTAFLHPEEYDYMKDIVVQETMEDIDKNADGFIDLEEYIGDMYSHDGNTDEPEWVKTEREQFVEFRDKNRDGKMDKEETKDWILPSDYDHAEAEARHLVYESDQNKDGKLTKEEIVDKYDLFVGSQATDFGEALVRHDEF
UniProt Q8N999, whole entry, looked up: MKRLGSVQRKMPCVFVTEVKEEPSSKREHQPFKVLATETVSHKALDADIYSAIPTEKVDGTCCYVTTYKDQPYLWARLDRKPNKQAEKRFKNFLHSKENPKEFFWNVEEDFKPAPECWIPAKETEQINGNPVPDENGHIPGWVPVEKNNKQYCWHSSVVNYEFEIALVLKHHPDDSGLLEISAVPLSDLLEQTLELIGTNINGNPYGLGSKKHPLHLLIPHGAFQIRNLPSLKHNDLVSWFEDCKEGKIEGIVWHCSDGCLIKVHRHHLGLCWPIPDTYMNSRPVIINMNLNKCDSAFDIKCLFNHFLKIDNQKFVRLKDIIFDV
UniProt Q96EU7: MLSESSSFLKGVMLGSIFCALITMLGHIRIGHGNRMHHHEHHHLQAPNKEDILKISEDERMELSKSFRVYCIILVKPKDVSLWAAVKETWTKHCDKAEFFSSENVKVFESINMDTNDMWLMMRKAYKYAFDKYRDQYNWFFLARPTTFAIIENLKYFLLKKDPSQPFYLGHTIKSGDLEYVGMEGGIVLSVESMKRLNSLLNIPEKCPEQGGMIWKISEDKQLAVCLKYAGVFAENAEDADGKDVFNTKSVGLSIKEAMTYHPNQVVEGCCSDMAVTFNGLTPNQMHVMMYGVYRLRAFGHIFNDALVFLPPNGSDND
UniProt O75155: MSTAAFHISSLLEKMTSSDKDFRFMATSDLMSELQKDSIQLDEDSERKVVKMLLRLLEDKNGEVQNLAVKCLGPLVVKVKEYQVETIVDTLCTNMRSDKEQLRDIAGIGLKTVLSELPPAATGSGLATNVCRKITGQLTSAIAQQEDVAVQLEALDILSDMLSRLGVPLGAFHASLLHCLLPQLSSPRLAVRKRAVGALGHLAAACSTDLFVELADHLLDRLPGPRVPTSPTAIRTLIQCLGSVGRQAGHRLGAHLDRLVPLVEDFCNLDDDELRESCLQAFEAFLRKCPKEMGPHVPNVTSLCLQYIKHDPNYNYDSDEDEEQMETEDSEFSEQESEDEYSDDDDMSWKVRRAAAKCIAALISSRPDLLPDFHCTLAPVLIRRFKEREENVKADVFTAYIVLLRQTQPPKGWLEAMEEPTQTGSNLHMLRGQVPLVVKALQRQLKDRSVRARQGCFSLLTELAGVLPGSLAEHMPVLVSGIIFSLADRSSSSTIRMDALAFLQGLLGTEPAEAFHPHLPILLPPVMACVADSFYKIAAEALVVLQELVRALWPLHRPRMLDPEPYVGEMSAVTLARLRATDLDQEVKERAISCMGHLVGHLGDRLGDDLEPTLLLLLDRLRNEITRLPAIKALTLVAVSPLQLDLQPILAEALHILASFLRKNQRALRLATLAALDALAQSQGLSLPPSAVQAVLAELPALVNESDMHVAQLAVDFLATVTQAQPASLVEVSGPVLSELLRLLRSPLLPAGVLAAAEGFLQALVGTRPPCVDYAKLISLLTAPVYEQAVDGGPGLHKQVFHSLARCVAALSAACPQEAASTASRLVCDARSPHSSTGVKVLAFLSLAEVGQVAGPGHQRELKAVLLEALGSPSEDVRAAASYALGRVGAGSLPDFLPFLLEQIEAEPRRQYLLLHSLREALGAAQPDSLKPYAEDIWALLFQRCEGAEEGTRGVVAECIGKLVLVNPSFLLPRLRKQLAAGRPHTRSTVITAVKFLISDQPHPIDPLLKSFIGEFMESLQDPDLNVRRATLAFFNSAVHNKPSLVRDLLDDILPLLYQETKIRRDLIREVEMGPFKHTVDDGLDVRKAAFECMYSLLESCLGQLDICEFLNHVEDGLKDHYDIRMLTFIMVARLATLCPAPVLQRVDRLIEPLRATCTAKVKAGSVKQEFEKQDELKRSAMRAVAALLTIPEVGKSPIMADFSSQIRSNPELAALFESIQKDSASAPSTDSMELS
UniProt P04632: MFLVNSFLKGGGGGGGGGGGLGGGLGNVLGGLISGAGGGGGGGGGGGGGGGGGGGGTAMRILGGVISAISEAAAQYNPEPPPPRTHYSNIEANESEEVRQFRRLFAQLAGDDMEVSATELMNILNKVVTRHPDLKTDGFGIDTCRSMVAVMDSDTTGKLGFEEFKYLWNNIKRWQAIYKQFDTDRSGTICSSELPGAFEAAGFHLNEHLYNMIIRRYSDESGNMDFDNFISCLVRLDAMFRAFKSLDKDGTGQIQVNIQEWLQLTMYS
UniProt Q9HAS0: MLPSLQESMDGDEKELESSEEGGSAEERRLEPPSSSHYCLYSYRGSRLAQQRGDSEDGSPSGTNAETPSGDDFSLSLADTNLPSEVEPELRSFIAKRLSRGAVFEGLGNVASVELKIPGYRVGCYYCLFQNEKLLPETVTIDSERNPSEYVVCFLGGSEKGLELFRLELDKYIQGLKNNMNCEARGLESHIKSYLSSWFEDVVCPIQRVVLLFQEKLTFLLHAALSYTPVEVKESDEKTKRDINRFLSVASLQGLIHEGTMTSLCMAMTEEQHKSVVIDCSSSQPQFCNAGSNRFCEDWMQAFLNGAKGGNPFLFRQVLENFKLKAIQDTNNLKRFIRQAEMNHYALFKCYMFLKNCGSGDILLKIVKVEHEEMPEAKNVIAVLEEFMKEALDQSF
UniProt Q8WUQ7: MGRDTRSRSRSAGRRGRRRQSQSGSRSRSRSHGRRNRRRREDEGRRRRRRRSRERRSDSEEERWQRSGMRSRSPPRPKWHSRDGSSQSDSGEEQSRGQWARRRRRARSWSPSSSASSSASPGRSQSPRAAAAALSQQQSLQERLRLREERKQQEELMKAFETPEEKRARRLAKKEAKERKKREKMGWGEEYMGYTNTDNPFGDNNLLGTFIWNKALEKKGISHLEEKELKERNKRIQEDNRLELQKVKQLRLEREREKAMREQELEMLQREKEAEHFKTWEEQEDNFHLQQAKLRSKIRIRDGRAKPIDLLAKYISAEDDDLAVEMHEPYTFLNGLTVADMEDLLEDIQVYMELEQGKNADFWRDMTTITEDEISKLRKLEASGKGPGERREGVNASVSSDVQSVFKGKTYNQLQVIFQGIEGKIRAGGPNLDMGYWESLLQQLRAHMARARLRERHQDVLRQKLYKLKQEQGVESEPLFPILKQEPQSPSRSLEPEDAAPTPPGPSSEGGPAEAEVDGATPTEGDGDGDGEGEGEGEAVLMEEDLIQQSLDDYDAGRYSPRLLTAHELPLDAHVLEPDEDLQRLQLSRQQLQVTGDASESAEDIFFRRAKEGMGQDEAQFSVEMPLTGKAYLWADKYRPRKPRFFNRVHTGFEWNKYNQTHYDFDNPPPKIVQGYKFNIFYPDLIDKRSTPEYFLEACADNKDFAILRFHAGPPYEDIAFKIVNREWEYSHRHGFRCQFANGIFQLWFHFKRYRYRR
UniProt Q9H425: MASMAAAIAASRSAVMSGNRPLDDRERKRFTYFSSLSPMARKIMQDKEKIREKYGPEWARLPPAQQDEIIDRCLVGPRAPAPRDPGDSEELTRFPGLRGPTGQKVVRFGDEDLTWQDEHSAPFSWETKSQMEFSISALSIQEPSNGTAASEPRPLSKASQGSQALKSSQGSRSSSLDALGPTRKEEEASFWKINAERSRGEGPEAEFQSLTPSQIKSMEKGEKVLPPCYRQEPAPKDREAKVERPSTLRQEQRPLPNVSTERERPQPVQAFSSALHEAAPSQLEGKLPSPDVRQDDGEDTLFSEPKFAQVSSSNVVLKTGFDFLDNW
UniProt A6NDU8: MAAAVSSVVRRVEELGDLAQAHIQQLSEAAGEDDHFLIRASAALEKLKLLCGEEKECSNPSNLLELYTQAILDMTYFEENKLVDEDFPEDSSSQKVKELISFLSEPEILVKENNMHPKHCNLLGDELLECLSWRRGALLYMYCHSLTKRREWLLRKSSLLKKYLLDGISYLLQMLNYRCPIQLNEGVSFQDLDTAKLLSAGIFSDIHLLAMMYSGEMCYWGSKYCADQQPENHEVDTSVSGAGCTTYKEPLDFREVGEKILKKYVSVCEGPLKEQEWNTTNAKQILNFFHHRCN
UniProt P35613: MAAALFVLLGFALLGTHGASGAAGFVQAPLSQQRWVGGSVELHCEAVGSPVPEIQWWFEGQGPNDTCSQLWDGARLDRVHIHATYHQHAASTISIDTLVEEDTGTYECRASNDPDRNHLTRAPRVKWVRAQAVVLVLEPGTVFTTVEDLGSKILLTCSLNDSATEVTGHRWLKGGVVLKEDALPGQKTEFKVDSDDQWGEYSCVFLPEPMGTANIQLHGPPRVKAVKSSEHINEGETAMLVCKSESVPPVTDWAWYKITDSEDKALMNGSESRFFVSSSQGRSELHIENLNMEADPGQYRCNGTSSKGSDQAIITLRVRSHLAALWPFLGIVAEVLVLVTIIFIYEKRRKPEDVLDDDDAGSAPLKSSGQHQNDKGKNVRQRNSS
UniProt P17655: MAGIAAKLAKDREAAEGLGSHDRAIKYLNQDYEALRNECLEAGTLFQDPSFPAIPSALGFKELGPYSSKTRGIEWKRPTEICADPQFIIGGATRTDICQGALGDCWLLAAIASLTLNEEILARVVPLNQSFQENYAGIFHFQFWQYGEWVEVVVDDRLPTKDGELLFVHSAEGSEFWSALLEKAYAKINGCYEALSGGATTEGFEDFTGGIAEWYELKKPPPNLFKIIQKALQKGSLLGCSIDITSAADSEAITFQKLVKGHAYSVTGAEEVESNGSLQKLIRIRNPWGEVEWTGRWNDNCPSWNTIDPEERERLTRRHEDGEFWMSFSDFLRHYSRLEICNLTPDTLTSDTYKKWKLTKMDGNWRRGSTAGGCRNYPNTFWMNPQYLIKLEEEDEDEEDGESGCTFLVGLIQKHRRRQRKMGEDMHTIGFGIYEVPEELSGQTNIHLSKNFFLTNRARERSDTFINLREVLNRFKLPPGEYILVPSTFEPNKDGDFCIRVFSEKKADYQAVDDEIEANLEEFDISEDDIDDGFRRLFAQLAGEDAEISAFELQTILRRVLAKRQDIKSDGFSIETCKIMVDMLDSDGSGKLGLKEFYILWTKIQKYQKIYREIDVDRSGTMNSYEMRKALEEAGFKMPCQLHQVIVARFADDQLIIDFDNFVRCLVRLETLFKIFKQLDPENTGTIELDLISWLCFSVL

Legend:
Experiment in all cases: log2 fold change, soluble protein after heating vs DMSO (PISA); higher = thermal stabilisation; K562 cells, 10 uM, 30 min; active = over 0.2 and 3.5 SD of the protein, either way, in both replicates (recomputed)
[1] = compound: CC[C@@H]1C(=O)N(C)c2cnc(Nc3ccc(C(=O)NC4CCN(C)CC4)cc3OC)nc2N1C1CCCC1
How it was run: (§1)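 K562 cells at 2×10^6 cells/mL were treated with 10 μM compound for 30 min. Aliquots were heated for 3 min across 48°C-58°C, pooled, and extracted in PBS with 0.5% NP-40 at 4°C; soluble protein was the supernatant after 21,000xg for 90 min. Soluble protein was quantified by TMTpro 16plex LC-MS/MS with channel sums equalised, and reported as log2 fold change in thermal stability against DMSO controls, with values from duplicates.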

[2] = compound: CC[C@@H]1C(=O)N(C)c2cnc(Nc3ccc(C(=O)N[C@H]4CC[C@H](N5CCN(CC6CC6)CC5)CC4)cc3OC)nc2N1C(C)C [volasertib]
How it was run: as §1

[3] = compound: CC[C@H](C)N1C=C(C2=C(C=C(C=C21)C3=CN=C(C=C3)N4CCNCC4)C(=O)NCC5=C(C=C(NC5=O)C)C)C
How it was run: as §1

[4] = compound: CC[C@H](C)[C@@H](C(=O)N[C@@H]([C@@H](C)O)C(=O)N[C@@H](CC(C)C)C(=O)[C@]1(CO1)C)NC(=O)[C@H]([C@@H](C)CC)N(C)C(=O)C [epoxomicin]
How it was run: as §1

[5] = compound: CCn1c(C(=O)N(C2CC2)C2CC2)cc2c3c(ncn3C)c(Nc3cc(C)n(C)n3)nc21
How it was run: as §1

[6] = compound: CCn1cc(-c2ccnc3[nH]c(-c4cccc(CN(C)C)c4)cc23)c(-c2ccc(NC(=O)N(C)C)cc2)n1
How it was run: as §1

[7] = compound: CN(C)CC(=O)Nc1ccc2[nH]c(=O)c3ccccc3c2c1
How it was run: as §1

[8] = compound: CN(CCOC1=CC=C(C=C1)C[C@H]2C(=O)NC(=O)S2)C3=CC=CC=N3 (racemic) [rosiglitazone]
How it was run: as §1

[9] = compound: CN1C2=C(C3=C1C(=O)N(N=C3)CC4=CC(=CC=C4)N)SC(=C2)S(=O)C
How it was run: as §1

[10] = compound: CN1CCC(CNc2ccc3ncc(-c4cccc(OC(F)(F)F)c4)n3n2)CC1
How it was run: as §1

Measured: log2 fold change

BTN2A1 (UniProt Q7KYR7)
inactive: [1] 0.164 | [2] -0.021 | [3] -0.028 | [4] 0.024 | [5] -0.129 | [6] 0.012 | [7] 0.003 | [8] 0.015 | [9] 0.006 | [10] 0.128

CALM2 (UniProt P0DP24)
inactive: [1] 0.024 | [2] 0.184 | [3] 0.004 | [4] 0.036 | [5] 0.023 | [6] -0.044 | [7] -0.022 | [8] -0.067 | [9] -0.054 | [10] 0.036

C1orf109 (UniProt Q9NX04)
inactive: [1] 0.037 | [2] 0.079 | [3] -0.053 | [4] 0.12 | [5] -0.062 | [6] -0.012 | [7] -0.085 | [8] -0.026 | [9] 0.002 | [10] 0.121

CAPZB (UniProt P47756)
inactive: [1] -0.042 | [2] -0.004 | [3] -0.002 | [4] 0.002 | [5] 0.005 | [6] -0.016 | [7] -0.025 | [8] 0.007 | [9] -0.06 | [10] -0.004

C2orf69 (UniProt Q8N8R5)
inactive: [1] 0.018 | [2] -0.005 | [3] -0.002 | [4] -0.036 | [5] 0.022 | [6] 0.101 | [7] -0.006 | [8] 0.049 | [9] -0.147 | [10] 0.17

C9orf40 (UniProt Q8IXQ3)
inactive: [1] -0.018 | [2] 0.114 | [3] -0.082 | [4] -0.019 | [5] -0.003 | [6] -0.121 | [7] -0.024 | [8] 0.037 | [9] 0.059 | [10] -0.013

C1orf122 (UniProt Q6ZSJ8)
inactive: [1] 0.108 | [2] 0.025 | [3] -0.004 | [4] 0.074 | [5] -0.057 | [6] 0.148 | [7] -0.007 | [8] 0.058 | [9] -0.061 | [10] -0.036

CALU isoform 4 (UniProt O43852)
inactive: [1] 0.076 | [2] 0.042 | [3] -0.041 | [4] 0.007 | [5] 0.004 | [6] 0.013 | [7] -0.026 | [8] -0.002 | [9] -0.032 | [10] -0.065

CANX isoform 2 (UniProt P27824)
inactive: [1] -0.017 | [2] -0.012 | [3] 0.008 | [4] 0.011 | [5] 0.025 | [6] 0.063 | [7] -0.002 | [8] -0.024 | [9] 0.037 | [10] 0.08

CAND1 (UniProt Q86VP6)
inactive: [1] 0.008 | [2] -0.044 | [3] -0.021 | [4] 0.03 | [5] 0.013 | [6] -0.029 | [7] -0.011 | [8] -0.014 | [9] -0.046 | [10] -0.025

C3 (UniProt P01024)
inactive: [1] -0.068 | [2] 0.105 | [3] -0.084 | [4] -0.393 | [5] 0.097 | [6] -0.09 | [7] -0.153 | [8] 0.072 | [9] 0.293 | [10] 0.081

C12orf29 (UniProt Q8N999)
inactive: [1] -0.011 | [2] -0.034 | [3] -0.01 | [4] -0.005 | [5] -0.028 | [6] -0.02 | [7] -0.045 | [8] 0.008 | [9] 0.03 | [10] -0.025

C1GALT1C1 (UniProt Q96EU7)
inactive: [1] -0.065 | [2] -0.183 | [3] 0.041 | [4] 0.011 | [5] 0.001 | [6] -0.006 | [7] 0.024 | [8] 0.023 | [9] -0.045 | [10] 0.087

BTF3 (UniProt P20290)
inactive: [1] -0.034 | [2] 0.078 | [3] -0.047 | [4] 0.013 | [5] 0.026 | [6] -0.001 | [7] -0.035 | [8] 0.009 | [9] -0.041 | [10] 0.018

C12orf73 (UniProt Q69YU5)
inactive: [1] 0.047 | [2] -0.146 | [3] -0.052 | [4] -0.04 | [5] 0.023 | [6] 0.099 | [7] -0.115 | [8] -0.016 | [9] -0.179 | [10] 0.212

BTF3L4 (UniProt Q96K17)
inactive: [1] 0.028 | [2] 0.041 | [3] -0.033 | [4] -0.018 | [5] -0.019 | [6] -0.005 | [7] 0.003 | [8] -0.015 | [9] -0.032 | [10] -0.004

C7 (UniProt P10643)
inactive: [1] 0.041 | [2] -0.049 | [3] -0.119 | [4] -0.237 | [5] 0.035 | [6] 0.186 | [7] -0.156 | [8] 0.094 | [9] 0.258 | [10] -0.089

CAND2 (UniProt O75155)
inactive: [1] 0.001 | [2] 0.009 | [3] -0.05 | [4] 0.028 | [5] 0.047 | [6] -0.02 | [7] -0.066 | [8] -0.004 | [9] -0.001 | [10] -0.074

CAPZA1 (UniProt P52907)
inactive: [1] -0.011 | [2] -0.052 | [3] -0.018 | [4] 0.008 | [5] 0.015 | [6] -0.072 | [7] 0.026 | [8] -0.005 | [9] -0.039 | [10] 0.004

Looked up one by one from the list above, 2 records:
C12orf73 (UniProt Q69YU5)
inactive: [1] 0.047 | [2] -0.146 | [3] -0.052 | [4] -0.04 | [5] 0.023 | [6] 0.099 | [7] -0.115 | [8] -0.016 | [9] -0.179 | [10] 0.212

C7 (UniProt P10643)
inactive: [1] 0.041 | [2] -0.049 | [3] -0.119 | [4] -0.237 | [5] 0.035 | [6] 0.186 | [7] -0.156 | [8] 0.094 | [9] 0.258 | [10] -0.089

The list continues.

CAPNS1 (UniProt P04632)
inactive: [1] 0.04 | [2] 0.145 | [3] -0.027 | [4] -0.014 | [5] 0.041 | [6] -0.016 | [7] -0.028 | [8] -0.008 | [9] -0.059 | [10] -0.014

C18orf25 (UniProt Q96B23)
inactive: [1] -0.037 | [2] -0.015 | [3] -0.021 | [4] -0.032 | [5] -0.033 | [6] 0.022 | [7] 0.018 | [8] -0.045 | [9] -0.092 | [10] -0.036

C17orf75 (UniProt Q9HAS0)
inactive: [1] 0.022 | [2] -0.11 | [3] 0.015 | [4] -0.071 | [5] -0.016 | [6] -0.009 | [7] 0.08 | [8] 0.014 | [9] 0.001 | [10] -0.068

CACTIN isoform 2 (UniProt Q8WUQ7)
inactive: [1] -0.048 | [2] -0.213 | [3] 0.008 | [4] 0.072 | [5] 0.037 | [6] 0.035 | [7] -0.019 | [8] 0.057 | [9] 0.019 | [10] -0.151

C11orf68 (UniProt Q9H3H3)
inactive: [1] -0.033 | [2] -0.037 | [3] -0.009 | [4] 0.015 | [5] 0.008 | [6] -0.064 | [7] 0 | [8] 0.03 | [9] -0.028 | [10] -0.115

C1orf198 (UniProt Q9H425)
inactive: [1] -0.084 | [2] -0.097 | [3] 0.012 | [4] 0.133 | [5] -0.04 | [6] 0.037 | [7] 0.035 | [8] -0.01 | [9] -0.022 | [10] 0.008

C5orf51 (UniProt A6NDU8)
inactive: [1] -0.231 | [2] -0.194 | [3] 0.088 | [4] -0.012 | [5] -0.003 | [6] 0.035 | [7] 0.085 | [8] 0.078 | [9] -0.017 | [10] -0.284

BSG (UniProt P35613)
inactive: [1] 0.079 | [2] 0.061 | [3] -0.036 | [4] -0.004 | [5] 0.084 | [6] -0.008 | [7] -0.018 | [8] -0.01 | [9] -0.042 | [10] 0.162

C3orf33 (UniProt Q6P1S2)
inactive: [1] 0.065 | [2] -0.05 | [3] 0.161 | [4] 0.152 | [5] -0.04 | [6] 0.057 | [7] -0.075 | [8] 0.06 | [9] -0.059 | [10] 0.035

CAPN2 (UniProt P17655)
inactive: [1] 0.018 | [2] 0.048 | [3] 0.014 | [4] 0.032 | [5] -0.002 | [6] -0.074 | [7] 0 | [8] -0.014 | [9] -0.052 | [10] -0.087
